{"source": "patent US9089514B2", "about": "“Composition and method for inhibiting biogenic sulfide generation” (Arkion Life Sciences, priority 2010, dated 2015)", "test_system": "biofilm on the granite chips", "assay": "Test Series #3a: amount of AHQ deposited in the biofilm", "parameters": "species or system Prudhoe Bay sulfate reducing bacteria", "conditions": "0.254 mg AHQ", "note": "Values joined by “and” are separate entries in the source; they are usually repeats but may differ in a detail not shown here. Equal values may be shown once."}
{"compound": "[Na+].[Na+].[O-]c1c2ccccc2c([O-])c2ccccc12", "note": "[AHQ, dialkali salt solution, anthrahydroquinone di-alkali salt]", "values": [{"measurement": "% AHQ Deposited", "setting": "centrifugation 20 sec", "value": "30% and 33%"}, {"measurement": "% AHQ Deposited", "setting": "centrifugation 60 sec", "value": "36% and 38%"}]}
